# From the supplement of paper PMC4749390
# Structures can show the parent of a compound that is named as a salt. Some of the results follow. This data set is noisy: repeats of one test often differ as much as different tests do.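 JEG3 cells stably express tetracycline-inducible wild-type human LRH-1, a highly sumoylated nuclear receptor. SUMO-sensitive transcripts APOC3 and MUC1, increased by SUMO-deficient LRH-1 or UBC9 knockdown, were quantified by RT-qPCR relative to TBP and DMSO controls. Primary hits had robust Z-scores above +2 or below -2, before toxicity and TBP filtering.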
# Test system: JEG3 expressing hLRH-1
# Assay: APOC3 transcript change (ddCt vs TBP and DMSO), Z-score over library; higher = higher APOC3 expression
# Settings: 10 µM; time (hr): 24
row,Structure (SMILES),APOC3 transcript change (Z-score)
1,Cc1nc2ccccn2c(=O)c1CCN1CCC(C(=O)c2ccc(F)cc2)CC1 [Pirenperone],-0.953
2,"Cc1cc(C(C)(C)C)c(O)c(C(C)(C)C)c1 [2,6-di-t-butyl-4-methylphenol]",-0.996
3,CO[C@H]1C[C@H](O[C@H]2[C@H](C)O[C@@H](O[C@@H]3/C(C)=C/C[C@@H]4C[C@@H](C[C@]5(C=C[C@H](C)[C@@H](C6CCCCC6)O5)O4)OC(=O)[C@@H]4C=C(C)[C@@H](O)[C@H]5OC/C(=C\C=C\[C@@H]3C)[C@]54O)C[C@@H]2OC)O[C@@H](C)[C@@H]1O [doramectin],0.00636
4,CCCC[C@@H](CC)COC(=O)c1ccccc1O [octisalate],0.0423
5,O=C(O)CCCCC1CCSS1 (stereo not given) [thioctic acid],-0.324
6,Nc1ccc(S(=O)(=O)Nc2ccnn2-c2ccccc2)cc1 [Sulfaphenazole],-1.02
7,CC(=O)/N=c1\sc(S(N)(=O)=O)nn1C [methazolamide],-1.7
8,O=C(O)CCNC(=O)c1ccc(N=Nc2ccc(O)c(C(=O)O)c2)cc1 [balsalazide disodium],-0.607
9,CC[N+](C)(C)c1cccc(O)c1 [edrophonium chloride],-0.0757
10,CC(=O)[C@@]1(O)CC[C@H]2[C@@H]3C=C(Cl)C4=CC(=O)[C@@H]5C[C@@H]5[C@]4(C)[C@H]3CC[C@@]21C [cyproterone],0.207
11,CCCOc1cc(N)ccc1C(=O)OCCN(CC)CC [propoxycaine hydrochloride],-0.0018
12,NCCc1c[nH]cn1 [Histamine dihydrochloride],0.483
13,CN1CCN(C(c2ccccc2)c2ccccc2)CC1 [cyclizine],0.192
14,OC1(c2ccc(Cl)c(C(F)(F)F)c2)CCN(CCCC(c2ccc(F)cc2)c2ccc(F)cc2)CC1 [penfluridol],0.177
15,CC(O)CN(CCN(CC(C)O)CC(C)O)CC(C)O (stereo not given) [editol],0.616
16,CC(=O)OCC(=O)[C@@]1(O)CC[C@H]2[C@@H]3CCC4=CC(=O)CC[C@]4(C)[C@@]3(F)[C@@H](O)C[C@@]21C [fludrocortisone acetate],0.498
17,FC(F)(F)C(Cl)Br (stereo not given) [halothane],1.13
18,CCCCN(CCCC)CCCOC(=O)c1ccc(N)cc1 [butacaine],0.972
19,CC(=O)OCC(=O)[C@@]1(O)CC[C@H]2[C@@H]3CCC4=CC(=O)C=C[C@]4(C)[C@@]3(Cl)[C@@H](Cl)C[C@@]21C [dichlorisone acetate],-0.214
20,NNCCc1ccccc1 [phenelzine sulfate],0.321
21,CCc1cn(C2OCC(O)C2CO)c(=O)[nH]c1=O (stereo not given) [edoxudine],-0.301
22,C=C1CC[C@H](O)C/C1=C/C=C1\CCC[C@]2(C)[C@@H]([C@H](C)CCCC(C)C)CC[C@@H]12 [cholecalciferol],0.665
23,CC[C@@H]1OC(OC(c2c[nH]cn2)C(NC(=O)c2nc(C(CC(N)=O)NCC(N)C(N)=O)nc(N)c2C)C(=O)NC(C)C(O)C(C)C(=O)NC(C(=O)NCCc2nc(-c3nc(C(=O)NCCCCN=C(N)N)cs3)cs2)C(C)O)[C@@H](O[C@H]2O[C@H](CO)[C@@H](O)[C@H](OC(N)=O)[C@@H]2O)[C@@H](C)[C@@H]1C (stereo not given in full) [bleomycin (bleomycin b2 shown)],0.722
24,CN(C)c1ccc(C(=C2C=CC(=[N+](C)C)C=C2)c2ccc(N(C)C)cc2)cc1 [gentian violet],-0.651

row,Structure (SMILES),APOC3 transcript change (Z-score)
1,CC(=O)S[C@@H]1CC2=CC(=O)CC[C@]2(C)[C@H]2CC[C@@]3(C)[C@@H](CC[C@@]34CCC(=O)O4)[C@H]12 [spironolactone],-1.78
2,O=C(OCC(O)CO)c1ccccc1Nc1ccnc2cc(Cl)ccc12 (stereo not given) [glafenine],0.0413
3,CN1CCC(=C2c3ccccc3CCc3sccc32)CC1 [pizotyline malate],-0.449
4,OC(Cn1cncn1)(Cn1cncn1)c1ccc(F)cc1F [fluconazole],-0.981
5,CN1CCN(CC/C=C2/c3ccccc3Sc3ccc(S(=O)(=O)N(C)C)cc32)CC1 [thiothixene],-0.178
6,O=C(c1ccc(OCCN2CCCCC2)cc1)c1c(-c2ccc(O)cc2)sc2cc(O)ccc12 [raloxifene hydrochloride],0.821
7,CN1CCN(CC(=O)N2c3ccccc3C(=O)Nc3cccnc32)CC1 [Pirenzepine dihydrochloride],0.194
8,C=CC(N)CCC(=O)O (racemic) [(±)-gamma-Vinyl GABA],-0.338
9,CC(C)(C)NCC(O)COc1cccc2c1CCC(=O)N2 (stereo not given) [carteolol hydrochloride],-0.395
10,FCOC(C(F)(F)F)C(F)(F)F [sevoflurane],-0.00408
11,CCN(CC)CCCC(C)Nc1ccnc2cc(Cl)ccc12 (stereo not given) [Chloroquine phosphate],0.417
12,CS(=O)(=O)c1ccc([C@@H](O)[C@@H](CF)NC(=O)C(Cl)Cl)cc1 [florfenicol],-0.261
13,CC(C)NCC(O)COc1cccc2ccccc12 (racemic) [(±)-Propranolol hydrochloride],-0.75
14,Oc1ccc(C2CNCCc3c2cc(O)c(O)c3Cl)cc1 (stereo not given) [fenoldipam mesylate],-0.286
15,N[C@@H](CC(=O)O)C(=O)O [L-Aspartic acid],0.189
16,CC(=O)O[C@]1(C(C)=O)CCC2C3C=C(Cl)C4=CC(=O)CC[C@]4(C)C3CC[C@@]21C (stereo not given in full) [chlormadinone acetate],0.399
17,CCCCCN(C)CCC(O)(P(=O)(O)O)P(=O)(O)O [ibandronate sodium],-1.02
18,C[Se]CC[C@H](N)C(=O)O [selenomethionine],0.967
19,CCCCCCOC(=O)NC(=N)c1ccc(NCc2nc3cc(C(=O)N(CCC(=O)OCC)c4ccccn4)ccc3n2C)cc1 [dabigatran etexilate mesylate],0.673
20,CN(C)c1cnccn1 [ampyzine sulfate],-1.25
21,O=C1CC[C@@H](C(=O)N2CSC[C@H]2C(=O)O)N1 [pidotimod],-1.29
22,CN(C)CCC=C1c2ccccc2C=Cc2ccccc21 [cyclobenzaprine hydrochloride],-1.36
23,CC(=O)OCC(=O)NCCCOc1cccc(CN2CCCCC2)c1 [roxatidine acetate hydrochloride],0.317
24,O=C(CCCl)NCc1ccccc1 [beclamide],0.306

row,Structure (SMILES),APOC3 transcript change (Z-score)
1,CCO/C(O)=C1/C(C)=NC(C)=C(C(=O)OC)C1c1cccc(Cl)c1Cl (stereo not given) [felodipine],-1.45
2,C[C@]12CCC(=O)C=C1CCC1C2C(=O)C[C@@]2(C)C1CC[C@]2(O)C(=O)CO (stereo not given in full) [cortisone],0.423
3,CCCCC/C=C/CCC(=O)N[C@H]1[C@H](Oc2c3cc4cc2Oc2ccc(cc2Cl)[C@@H](O[C@@H]2O[C@H](CO)[C@@H](O)[C@H](O)[C@H]2NC(C)=O)[C@@H]2NC(=O)[C@H](NC(=O)[C@@H]4NC(=O)[C@H]4NC(=O)C(Cc5ccc(c(Cl)c5)O3)NC(=O)[C@H](N)c3ccc(O)c(c3)Oc3cc(O)cc4c3)c3ccc(O)c(c3)-c3c(OC4O[C@H](CO)[C@@H](O)[C@H](O)[C@@H]4O)cc(O)cc3[C@@H](C(=O)O)NC2=O)O[C@H](CO)[C@@H](O)[C@@H]1O (stereo not given in full) [teicoplanin [a(2-1) shown]],0.0798
4,CC(C(=O)O)c1cccc(Oc2ccccc2)c1 (stereo not given) [fenoprofen],-0.143
5,CC(C)(C)NCC(O)COc1cccc2c1C[C@H](O)[C@H](O)C2 (stereo not given in full) [nadolol],0.942
6,CCN(CC)Cc1ccc(Nc2ccnc3cc(Cl)ccc23)cc1O [amodiaquine dihydrochloride],0.249
7,N=C(N)NC(=O)c1nc(Cl)c(N)nc1N [Amiloride hydrochloride],2.43
8,CCCc1ncc(C[n+]2ccccc2C)c(N)n1 [amprolium],0.00216
9,CO[C@H]1/C=C/O[C@@]2(C)Oc3c(C)c(O)c4c(O)c(c(/C=N/N5CCN(C)CC5)c(O)c4c3C2=O)NC(=O)/C(C)=C\C=C\[C@H](C)[C@H](O)[C@@H](C)[C@@H](O)[C@@H](C)[C@H](OC(C)=O)[C@@H]1C [rifampin],-0.537
10,CC(C)NCC(O)c1ccc(O)c(O)c1 (racemic) [(±)-Isoproterenol hydrochloride],-0.0182
11,CCCSc1ccc2[nH]c(NC(=O)OC)nc2c1 [albendazole],0.261
12,CCc1ccc(CCOc2ccc(CC3SC(=O)NC3=O)cc2)nc1 (stereo not given) [pioglitazone hydrochloride],0.458
13,Nc1ccn([C@H]2CC[C@@H](CO)O2)c(=O)n1 [zalcitabine],0.805
14,Cc1ccc(NC(=O)c2ccc(CN3CCN(C)CC3)cc2)cc1Nc1nccc(-c2cccnc2)n1 [imatinib],-0.588
15,Nc1ccc(O)c(C(=O)O)c1 [mesalamine],-0.372
16,CC(C)(Oc1ccc(CCNC(=O)c2ccc(Cl)cc2)cc1)C(=O)O [bezafibrate],0.0836
17,CC1/C=C/C=C/C=C/C=C/C=C/C=C/C=C/C(O[C@@H]2O[C@H](C)[C@H](O)[C@@H](O)[C@@H]2N)CC(O)C(C(=O)O)C(O)CC(=O)CC(O)CC(O)CC(O)CC(=O)CCCC(=O)CC(=O)OC1C(C)CC(C)C(O)CC(=O)c1ccc(N)cc1 (stereo not given in full) [candicidin],0.527
18,Cc1cccc(C)c1NC(=O)c1ccccc1C(=O)O [ftaxilide],0.0265
19,NS(=O)(=O)c1cc2c(cc1Cl)NC(CSCc1ccccc1)=NS2(=O)=O [benzthiazide],-0.539
20,NC(=O)c1ccccc1O [salicylamide],0.0633
21,c1ccc(CN(CC2=NCCN2)c2ccccc2)cc1 [antazoline phosphate],0.256
22,Oc1c(Br)cc(Br)c2cccnc12 [broxyquinoline],-0.0986

# Among those listed so far, these have a thiophene ring, fused or not:
row,Structure (SMILES),APOC3 transcript change (Z-score)
3,CN1CCC(=C2c3ccccc3CCc3sccc32)CC1 [pizotyline malate],-0.449
6,O=C(c1ccc(OCCN2CCCCC2)cc1)c1c(-c2ccc(O)cc2)sc2cc(O)ccc12 [raloxifene hydrochloride],0.821
